The record followed here is paper PMC13245411.

By UniProt entry, the sequences of proteins in these tests, tags left out.
UniProt Q5VXU9: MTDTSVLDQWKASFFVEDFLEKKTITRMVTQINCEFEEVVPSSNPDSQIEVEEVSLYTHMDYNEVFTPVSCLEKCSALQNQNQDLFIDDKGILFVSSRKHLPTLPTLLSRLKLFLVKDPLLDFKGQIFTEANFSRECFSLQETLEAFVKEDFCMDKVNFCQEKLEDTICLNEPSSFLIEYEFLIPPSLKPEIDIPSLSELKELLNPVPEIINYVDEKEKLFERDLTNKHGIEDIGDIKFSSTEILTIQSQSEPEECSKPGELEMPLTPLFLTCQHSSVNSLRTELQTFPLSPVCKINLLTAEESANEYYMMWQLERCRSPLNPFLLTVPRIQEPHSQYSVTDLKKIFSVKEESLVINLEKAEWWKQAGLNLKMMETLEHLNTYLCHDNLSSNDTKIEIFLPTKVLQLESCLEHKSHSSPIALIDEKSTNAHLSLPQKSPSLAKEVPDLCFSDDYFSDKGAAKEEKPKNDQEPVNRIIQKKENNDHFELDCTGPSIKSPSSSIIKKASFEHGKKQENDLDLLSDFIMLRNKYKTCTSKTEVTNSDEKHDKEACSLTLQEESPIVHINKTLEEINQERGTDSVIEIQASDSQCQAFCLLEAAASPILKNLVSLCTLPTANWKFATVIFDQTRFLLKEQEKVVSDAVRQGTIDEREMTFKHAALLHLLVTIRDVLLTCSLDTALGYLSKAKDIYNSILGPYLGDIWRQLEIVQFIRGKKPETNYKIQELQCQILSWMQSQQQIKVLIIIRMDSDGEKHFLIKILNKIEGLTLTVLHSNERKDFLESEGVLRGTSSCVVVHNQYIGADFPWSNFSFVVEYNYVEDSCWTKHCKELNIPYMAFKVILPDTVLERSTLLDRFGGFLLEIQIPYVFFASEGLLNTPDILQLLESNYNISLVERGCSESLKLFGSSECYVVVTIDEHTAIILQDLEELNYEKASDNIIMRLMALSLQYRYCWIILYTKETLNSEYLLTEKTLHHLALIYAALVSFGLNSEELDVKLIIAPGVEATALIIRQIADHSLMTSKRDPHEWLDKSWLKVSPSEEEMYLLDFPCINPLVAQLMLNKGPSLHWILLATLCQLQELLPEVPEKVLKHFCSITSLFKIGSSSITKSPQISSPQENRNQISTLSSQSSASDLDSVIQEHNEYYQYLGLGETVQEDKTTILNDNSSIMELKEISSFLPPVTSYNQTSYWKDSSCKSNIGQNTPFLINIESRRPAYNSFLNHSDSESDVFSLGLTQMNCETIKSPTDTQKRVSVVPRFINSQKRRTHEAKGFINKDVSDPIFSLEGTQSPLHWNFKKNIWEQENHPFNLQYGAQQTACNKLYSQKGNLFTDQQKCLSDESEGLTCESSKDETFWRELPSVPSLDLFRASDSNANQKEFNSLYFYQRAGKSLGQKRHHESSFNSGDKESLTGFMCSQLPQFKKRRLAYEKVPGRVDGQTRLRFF

In experiment [1] the target is T1, human MYC-tagged TEX11 (human) (UniProt Q8IYF3).
T1 sequence: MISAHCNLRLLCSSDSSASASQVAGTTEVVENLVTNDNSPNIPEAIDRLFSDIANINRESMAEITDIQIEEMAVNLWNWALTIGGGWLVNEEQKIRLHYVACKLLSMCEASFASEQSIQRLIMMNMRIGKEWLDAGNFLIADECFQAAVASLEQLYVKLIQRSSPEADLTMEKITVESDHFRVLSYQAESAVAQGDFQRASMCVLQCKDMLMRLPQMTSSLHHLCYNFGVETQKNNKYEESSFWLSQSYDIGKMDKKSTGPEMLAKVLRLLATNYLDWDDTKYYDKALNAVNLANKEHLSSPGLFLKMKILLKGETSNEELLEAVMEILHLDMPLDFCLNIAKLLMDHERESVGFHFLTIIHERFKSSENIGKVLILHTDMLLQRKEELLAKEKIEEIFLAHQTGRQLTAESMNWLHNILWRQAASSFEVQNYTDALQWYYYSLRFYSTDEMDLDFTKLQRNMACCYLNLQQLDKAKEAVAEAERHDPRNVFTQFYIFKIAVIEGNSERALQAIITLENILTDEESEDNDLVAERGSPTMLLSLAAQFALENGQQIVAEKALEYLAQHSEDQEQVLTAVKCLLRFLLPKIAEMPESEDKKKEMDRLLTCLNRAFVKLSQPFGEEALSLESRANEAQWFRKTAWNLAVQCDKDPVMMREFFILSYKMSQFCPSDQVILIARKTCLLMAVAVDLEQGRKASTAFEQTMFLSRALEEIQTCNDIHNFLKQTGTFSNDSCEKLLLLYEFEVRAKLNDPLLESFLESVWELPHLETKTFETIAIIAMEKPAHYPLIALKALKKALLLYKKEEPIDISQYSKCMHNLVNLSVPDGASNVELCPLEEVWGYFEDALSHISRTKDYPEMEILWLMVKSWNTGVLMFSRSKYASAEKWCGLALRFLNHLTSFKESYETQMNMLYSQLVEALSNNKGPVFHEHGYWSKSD
Kind of experiment: co-IP; TEX11 with SPO16 or C1orf146, with or without SHOC1 co-expressed (Supplementary Fig. S1A, B).

For experiment [2], the target named is human FLAG-tagged SHOC1 (human) (UniProt Q5VXU9). Kind of experiment: co-IP; tagged proteins co-expressed in pairs in HEK293T; immunoprecipitated from cell lysates by tag-specific antibodies, Western blot; IP lysis buffer 20 mM HEPES, 150 mM NaCl, 0.5% NP-40, 1 mM DTT, pH 7.3; 4°C (Fig. 1A, B; Supplementary Fig. S2C, D). For orientation: In western blotting, separated proteins are transferred to a membrane and probed.

Experiment [3] has as its target T2, human TEX11-nVenus (human) (UniProt Q8IYF3).
T2 sequence: T1 sequence
Description: split reporter; Bi-FC with Venus fragments VN210 and VC210 fused to the two proteins, transfected into HeLa cells, fluorescence imaging.

The target of experiment [4] is human SHOC1-nVenus (human) (UniProt Q5VXU9). The experiment is described as above.
Experiment [5] deals with T3, mouse TEX11-nVenus (mouse) (UniProt Q14AT2).
T3 sequence: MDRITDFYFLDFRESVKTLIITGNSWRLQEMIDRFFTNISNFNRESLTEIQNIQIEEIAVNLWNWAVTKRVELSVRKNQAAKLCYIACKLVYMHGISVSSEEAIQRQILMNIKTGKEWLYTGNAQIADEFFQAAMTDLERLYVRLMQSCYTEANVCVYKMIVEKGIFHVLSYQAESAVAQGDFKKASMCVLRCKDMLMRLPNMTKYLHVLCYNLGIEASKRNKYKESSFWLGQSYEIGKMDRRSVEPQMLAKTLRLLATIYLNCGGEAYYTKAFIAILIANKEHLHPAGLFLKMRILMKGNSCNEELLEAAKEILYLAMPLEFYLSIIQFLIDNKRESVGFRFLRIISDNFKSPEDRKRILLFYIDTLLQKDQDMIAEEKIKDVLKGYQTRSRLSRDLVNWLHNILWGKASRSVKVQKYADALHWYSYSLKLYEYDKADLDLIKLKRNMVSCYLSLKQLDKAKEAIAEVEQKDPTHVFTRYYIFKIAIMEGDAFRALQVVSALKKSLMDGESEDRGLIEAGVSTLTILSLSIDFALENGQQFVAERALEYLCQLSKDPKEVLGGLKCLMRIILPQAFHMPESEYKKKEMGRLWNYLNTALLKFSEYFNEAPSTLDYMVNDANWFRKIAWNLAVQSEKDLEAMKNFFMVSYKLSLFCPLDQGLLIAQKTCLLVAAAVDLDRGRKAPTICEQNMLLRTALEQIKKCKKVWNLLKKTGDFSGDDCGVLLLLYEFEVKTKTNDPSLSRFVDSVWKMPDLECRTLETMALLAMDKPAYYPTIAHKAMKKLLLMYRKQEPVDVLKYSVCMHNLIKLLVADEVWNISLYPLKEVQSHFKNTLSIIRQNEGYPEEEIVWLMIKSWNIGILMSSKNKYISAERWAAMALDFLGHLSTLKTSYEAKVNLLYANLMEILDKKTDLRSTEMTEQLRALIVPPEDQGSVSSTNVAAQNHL
Described as above.

Experiment [6] addresses T4, mouse HA-tagged TEX11 (mouse) (UniProt Q14AT2).
T4 sequence: T3 sequence
Description: co-IP; TEX11 with SPO16 or C1orf146, with or without SHOC1 co-expressed (Supplementary Fig. S1A, B).

Experiment [7] addresses mouse SHOC1 N-terminal 1–625 (mouse) (UniProt A2ALV5). Kind of experiment: co-IP; tagged proteins co-expressed in pairs in HEK293T; immunoprecipitated from cell lysates by tag-specific antibodies, Western blot; IP lysis buffer 20 mM HEPES, 150 mM NaCl, 0.5% NP-40, 1 mM DTT, pH 7.3; 4°C (Fig. 1A, B; Supplementary Fig. S2C, D).
For experiment [8], the target named is mouse SHOC1 ΔF4 (aa1155-1482del) (mouse) (UniProt A2ALV5). The description is as above.
Experiment [9] deals with mouse SHOC1 ΔF3 (aa626-1154del) (mouse) (UniProt A2ALV5). Described as above.
Experiment [10] deals with mouse SHOC1 ΔF2 (aa313-625del) (mouse) (UniProt A2ALV5). Described as above.

Results are given in words; binding and its absence hold for the method and conditions named. Binding seen in cells or lysates may run through a third protein. Some results given as binding are weak or reduced against the parent protein; the word gives no strength. For some of these results: Where a sequence is shown, tags or fusion partners need not be part of it.

B1: human MYC-tagged C1orf146 (protein, UniProt Q5VVC0 1-180)
chain: MAESGKEKIKWTTTIIISSSLKSYEVATALENRSHKVRYSDSVENGSIIFSLSGVAFLLMDTKECLLSTEEIFLAKIEKFINIHQNSFLVLSAALHGPEEWKLMFRIQQRFLGCNLRILPVHNTVNAINLMCTIAKTTSKPYIDSICYRMITAKAYIIEQSPVWKTLQKIKLNSDSVNPN
Take B1: the binding entry in experiment [1] and in experiment [2] was “no binding” each time.

B2: human C1orf146-cVenus (protein, UniProt Q5VVC0 1-180)
chain: B1 chain
Consider B2, for which the binding result in experiment [3] and in experiment [4] was “no binding” each time.

B3: mouse SPO16-cVenus (protein, UniProt Q3KQP7 1-186)
chain: MAMDERRGKERVQWTTTIIISSSLKSYEIATALENRSHKVRYSDTLESGSIVFSLSGVAFLLMDAKECMTSAEEIFVTKIEKFINIHQNSFLVLFAPLHGPEEWSLMFRIHQRFLGSNLRILPVHNTVNALDLMCTIAKTTSKPHIDSICYRMITTKAYIIEQSPVWRTLQKIKLSSDSVSADSGE
For the molecule B3, the binding entry in [5] is reported as “binds”.

B4: mouse HA-tagged SPO16 (protein, UniProt Q3KQP7 1-186)
chain: B3 chain
Take B4: the binding result in experiment [6] is “binds”.

B5: mouse HA-tagged TEX11 (protein, UniProt Q14AT2 1-947)
chain: T3 sequence
As for B5, the binding result in experiment [7], in [8], in experiment [9] and in experiment [10] was “binds” throughout.
